Results deposited as PubChem BioAssay AID1224828 (NIAID, 2016).
The deposit covers about 17,000 reagents; this is an unselected part. Over the whole deposit, 762 (4.5%) are marked active. 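Active calls include both raised and lowered p65 entry, mostly lowered; wells with fewer than 50 cells lack a z-score.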 Raw values vary from plate to plate and are shown uncorrected. Unmarked entries are inactive. No sequences are given here.

- Test: 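Regulators linking TLR4 signalling to p65 nuclear translocation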 (primary screen)
- Cell system: mouse RAW264.7 G9 macrophage reporter cells (GFP-p65, Tnf promoter-mCherry)
- Reagent: siRNA pool against mouse genes, 100 nM
- Time to read-out: 2 days siRNA transfection, then 40 min LPS before fixation
- Challenge: LPS (Salmonella minnesota R595) at 10 ng/ml
- Measurement: 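Microscopy ratio of nuclear to perinuclear-ring GFP-p65 signal, scaled to the plate median; gene score is the average of two replicate robust z-scores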
- Reading the numbers: p65 translocation robust z-score: higher = more nuclear NF-kappaB p65 after LPS than the plate median; nuclear/cytoplasmic p65 ratio: higher = more nuclear NF-kappaB p65
- Active means: 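Active if robust z is above 3.3 (negative regulators) or below -1.56, the Tlr4 control median (positive regulators); activity score 50 or more; control wells not called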
- Meaning of the calls: active = hit (p65 shift raised or lowered); inactive = no clear change

Target gene,p65 translocation robust z-score,"nuclear/cytoplasmic p65 ratio, rep 1","nuclear/cytoplasmic p65 ratio, rep 2",low cell count flag
"Zc2hc1a (zinc finger, C2HC-type containing 1A)",,1.27,1.38,fewer than 50 cells per well; well left out of scoring
Hhex (hematopoietically expressed homeobox),2.72,1.83,1.69,enough cells to score
Cplx1 (complexin 1),-1.52,1.38,1.5,enough cells to score
Dcaf15 (DDB1 and CUL4 associated factor 15),,1.49,1.61,fewer than 50 cells per well; well left out of scoring
Bmx (BMX non-receptor tyrosine kinase),-0.23,1.69,1.32,enough cells to score
"Ganc (glucosidase, alpha; neutral C)",,1.2,1.39,fewer than 50 cells per well; well left out of scoring
Ccng2 (cyclin G2),0.71,1.47,1.47,enough cells to score
Cpe (carboxypeptidase E),0.42,1.37,1.41,enough cells to score
Hcn1,-0.05,1.39,1.4,enough cells to score
"Tas2r123 (taste receptor, type 2, member 123)",1.39,1.16,1.34,enough cells to score
Hnmt (histamine N-methyltransferase),1.09,1.56,1.53,enough cells to score
Arl4c (ADP-ribosylation factor-like 4C),-1.05,1.24,1.34,enough cells to score
"Tmprss15 (transmembrane protease, serine 15)",-0.28,1.51,1.33,enough cells to score
Cdca8 (cell division cycle associated 8),,1.35,1.5,fewer than 50 cells per well; well left out of scoring
"B4gat1 (beta-1,4-glucuronyltransferase 1)",0.95,1.62,1.63,enough cells to score
D630044L22Rik (RIKEN cDNA gene D630044L22 gene),-0.7,1.31,1.43,enough cells to score
Fiz1 (Flt3 interacting zinc finger protein 1),-2.09 (active),1.32,1.15,enough cells to score
Hnrnpa2b1 (heterogeneous nuclear ribonucleoprotein A2/B1),0.07,1.72,1.49,enough cells to score

3 neighbouring reagents from above, for reference:
Target gene,p65 translocation robust z-score,"nuclear/cytoplasmic p65 ratio, rep 1","nuclear/cytoplasmic p65 ratio, rep 2",low cell count flag
"Ganc (glucosidase, alpha; neutral C)",,1.2,1.39,fewer than 50 cells per well; well left out of scoring
Ccng2 (cyclin G2),0.71,1.47,1.47,enough cells to score
Cpe (carboxypeptidase E),0.42,1.37,1.41,enough cells to score

The results go on:
Target gene,p65 translocation robust z-score,"nuclear/cytoplasmic p65 ratio, rep 1","nuclear/cytoplasmic p65 ratio, rep 2",low cell count flag
Clk2 (CDC-like kinase 2),,1.56,1.29,fewer than 50 cells per well; well left out of scoring
Or8g33 (olfactory receptor family 8 subfamily G member 33),1.8,1.6,1.45,enough cells to score
AI597479 (expressed sequence AI597479),1.06,1.74,1.87,enough cells to score
Dgat1 (diacylglycerol O-acyltransferase 1),-0.15,1.51,1.34,enough cells to score
9930111J21Rik2 (RIKEN cDNA 9930111J21 gene 2),1.49,1.64,1.74,enough cells to score
"Pcdhga11 (protocadherin gamma subfamily A, 11)",0.87,1.55,1.35,enough cells to score
Lhcgr (luteinizing hormone/choriogonadotropin receptor),-0.06,1.47,1.6,enough cells to score
Mcmbp (minichromosome maintenance complex binding protein),0.7,1.53,1.65,enough cells to score
Or9q2 (olfactory receptor family 9 subfamily Q member 2),0.74,1.74,1.5,enough cells to score
Sdc3 (syndecan 3),-1.27,1.18,1.13,enough cells to score
Erp44 (endoplasmic reticulum protein 44),-0.18,1.5,1.47,enough cells to score
Ltap1 (lipid transport auxiliary protein 1),-0.6,1.29,1.45,enough cells to score
"Baz1b (bromodomain adjacent to zinc finger domain, 1B)",0.06,1.59,1.65,enough cells to score
Ampd3 (adenosine monophosphate deaminase 3),0.4,1.76,1.6,enough cells to score
Pno1 (partner of NOB1 homolog),,1.61,1.51,fewer than 50 cells per well; well left out of scoring
Btf3l4 (basic transcription factor 3-like 4),,1.67,1.61,fewer than 50 cells per well; well left out of scoring
"Myl6b (myosin, light polypeptide 6B)",-1.09,1.48,1.59,enough cells to score
Slc22a15,0.02,1.34,1.24,enough cells to score
Ly6g6g (lymphocyte antigen 6 family member G6G),0.12,1.4,1.75,enough cells to score
Irgm1 (immunity-related GTPase family M member 1),0.35,1.57,1.51,enough cells to score
"Ntrk1 (neurotrophic tyrosine kinase, receptor, type 1)",0.77,1.87,1.42,enough cells to score
"Clec2m (C-type lectin domain family 2, member m)",0.38,1.07,1.35,enough cells to score
